Some of the results follow. Small differences around the control level are noise.
compound: CN[C@@H]1C[C@H]2O[C@@](C)([C@@H]1OC)n1c3ccccc3c3c4c(c5c6ccccc6n2c5c31)C(=O)NC4 [staurosporine]; experiment: log2 fold change of tryptic peptide abundance, ligand vs vehicle (limited proteolysis) (log2 ratio); higher = more trypsin-susceptible (destabilized); conditions: ligand concentration: 20 uM; sample: mouse liver crude lysate; replicate design: treated separately

Protein sequences, listed by entry. Tags and fused reporters are not part of them. Lines headed by an entry give the natural chain unless they say otherwise; changes in a name come on top.
UniProt Q8VDG7, whole entry: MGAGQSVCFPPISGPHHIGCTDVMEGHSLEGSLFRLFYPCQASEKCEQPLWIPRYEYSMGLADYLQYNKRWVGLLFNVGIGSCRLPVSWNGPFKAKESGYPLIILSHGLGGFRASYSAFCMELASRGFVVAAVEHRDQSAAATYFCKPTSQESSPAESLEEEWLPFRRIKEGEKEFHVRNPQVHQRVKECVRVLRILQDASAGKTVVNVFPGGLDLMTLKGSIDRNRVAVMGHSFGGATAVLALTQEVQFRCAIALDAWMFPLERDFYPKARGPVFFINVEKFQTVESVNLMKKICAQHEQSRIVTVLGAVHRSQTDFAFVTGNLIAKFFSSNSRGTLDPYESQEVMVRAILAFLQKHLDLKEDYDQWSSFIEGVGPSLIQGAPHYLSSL
UniProt Q8VDD8: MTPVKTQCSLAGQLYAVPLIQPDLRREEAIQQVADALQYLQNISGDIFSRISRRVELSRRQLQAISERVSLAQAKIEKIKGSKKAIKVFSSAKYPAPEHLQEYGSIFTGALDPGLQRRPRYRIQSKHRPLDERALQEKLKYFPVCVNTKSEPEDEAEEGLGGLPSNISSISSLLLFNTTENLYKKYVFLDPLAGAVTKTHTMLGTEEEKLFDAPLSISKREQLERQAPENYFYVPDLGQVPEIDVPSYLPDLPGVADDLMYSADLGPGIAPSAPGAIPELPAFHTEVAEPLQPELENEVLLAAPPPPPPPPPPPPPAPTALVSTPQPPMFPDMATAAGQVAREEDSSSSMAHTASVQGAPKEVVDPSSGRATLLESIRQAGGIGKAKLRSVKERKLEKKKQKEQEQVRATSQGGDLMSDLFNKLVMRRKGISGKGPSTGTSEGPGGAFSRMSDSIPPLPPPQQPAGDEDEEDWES
UniProt Q8R5F3: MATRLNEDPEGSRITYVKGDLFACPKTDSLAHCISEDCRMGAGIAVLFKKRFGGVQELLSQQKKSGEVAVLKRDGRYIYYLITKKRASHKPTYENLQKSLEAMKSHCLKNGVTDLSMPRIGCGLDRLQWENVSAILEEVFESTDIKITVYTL
UniProt Q8VE97: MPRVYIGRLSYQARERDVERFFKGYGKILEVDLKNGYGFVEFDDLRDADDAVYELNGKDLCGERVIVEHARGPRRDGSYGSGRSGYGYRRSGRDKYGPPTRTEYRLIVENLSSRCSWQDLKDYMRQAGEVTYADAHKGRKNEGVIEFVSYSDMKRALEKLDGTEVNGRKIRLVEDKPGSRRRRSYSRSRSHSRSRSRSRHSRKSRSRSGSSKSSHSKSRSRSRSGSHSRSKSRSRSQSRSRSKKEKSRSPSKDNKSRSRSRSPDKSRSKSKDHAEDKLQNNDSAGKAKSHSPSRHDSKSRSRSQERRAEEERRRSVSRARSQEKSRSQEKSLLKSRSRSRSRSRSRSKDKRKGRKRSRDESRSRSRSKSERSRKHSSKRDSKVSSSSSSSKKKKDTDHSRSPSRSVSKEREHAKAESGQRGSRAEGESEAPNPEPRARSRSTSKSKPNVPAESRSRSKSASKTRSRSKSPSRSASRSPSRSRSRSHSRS
UniProt Q8R317, whole entry: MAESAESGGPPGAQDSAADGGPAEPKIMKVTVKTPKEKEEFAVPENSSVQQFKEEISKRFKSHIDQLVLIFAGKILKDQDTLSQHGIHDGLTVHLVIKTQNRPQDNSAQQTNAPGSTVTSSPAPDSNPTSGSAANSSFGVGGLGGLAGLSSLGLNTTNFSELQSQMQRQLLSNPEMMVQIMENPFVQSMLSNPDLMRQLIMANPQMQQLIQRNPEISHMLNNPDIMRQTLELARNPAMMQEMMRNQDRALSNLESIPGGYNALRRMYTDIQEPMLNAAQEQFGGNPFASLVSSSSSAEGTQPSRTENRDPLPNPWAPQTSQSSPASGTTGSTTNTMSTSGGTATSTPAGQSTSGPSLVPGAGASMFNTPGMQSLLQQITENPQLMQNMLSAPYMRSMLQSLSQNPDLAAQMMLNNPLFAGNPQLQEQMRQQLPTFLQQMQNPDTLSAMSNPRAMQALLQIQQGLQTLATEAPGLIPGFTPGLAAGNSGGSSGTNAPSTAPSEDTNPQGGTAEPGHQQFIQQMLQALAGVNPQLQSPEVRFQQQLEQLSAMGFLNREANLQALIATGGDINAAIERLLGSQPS
UniProt Q8R395: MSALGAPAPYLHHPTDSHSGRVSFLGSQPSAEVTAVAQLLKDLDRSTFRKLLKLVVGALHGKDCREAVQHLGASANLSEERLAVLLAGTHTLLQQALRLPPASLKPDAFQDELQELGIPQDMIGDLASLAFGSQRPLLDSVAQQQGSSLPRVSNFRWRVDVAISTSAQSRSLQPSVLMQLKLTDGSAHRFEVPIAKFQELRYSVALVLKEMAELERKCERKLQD
UniProt Q8R411: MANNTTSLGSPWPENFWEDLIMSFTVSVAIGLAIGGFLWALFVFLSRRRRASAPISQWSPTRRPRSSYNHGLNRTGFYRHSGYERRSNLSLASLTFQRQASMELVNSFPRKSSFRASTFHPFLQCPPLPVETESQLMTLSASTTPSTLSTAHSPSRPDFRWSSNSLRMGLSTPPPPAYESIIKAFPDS
UniProt Q8VCB3: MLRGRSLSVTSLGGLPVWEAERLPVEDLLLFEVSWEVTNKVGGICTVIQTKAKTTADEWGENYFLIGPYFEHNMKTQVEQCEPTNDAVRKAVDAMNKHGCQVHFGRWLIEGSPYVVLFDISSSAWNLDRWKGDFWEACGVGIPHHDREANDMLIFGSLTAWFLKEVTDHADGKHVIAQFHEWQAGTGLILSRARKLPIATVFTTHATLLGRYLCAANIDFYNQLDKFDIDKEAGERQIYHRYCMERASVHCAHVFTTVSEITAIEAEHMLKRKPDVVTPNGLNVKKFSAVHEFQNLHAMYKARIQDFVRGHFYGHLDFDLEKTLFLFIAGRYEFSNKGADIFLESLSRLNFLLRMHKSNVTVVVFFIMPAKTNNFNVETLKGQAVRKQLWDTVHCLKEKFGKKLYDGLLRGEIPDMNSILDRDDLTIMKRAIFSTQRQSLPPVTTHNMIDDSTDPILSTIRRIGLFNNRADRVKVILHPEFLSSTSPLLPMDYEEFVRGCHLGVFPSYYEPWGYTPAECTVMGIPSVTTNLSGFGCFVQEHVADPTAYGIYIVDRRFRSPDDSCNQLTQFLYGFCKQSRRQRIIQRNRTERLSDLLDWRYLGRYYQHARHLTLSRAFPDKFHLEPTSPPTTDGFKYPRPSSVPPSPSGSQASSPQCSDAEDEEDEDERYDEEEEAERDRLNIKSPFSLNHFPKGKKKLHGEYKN
UniProt Q8VEB3: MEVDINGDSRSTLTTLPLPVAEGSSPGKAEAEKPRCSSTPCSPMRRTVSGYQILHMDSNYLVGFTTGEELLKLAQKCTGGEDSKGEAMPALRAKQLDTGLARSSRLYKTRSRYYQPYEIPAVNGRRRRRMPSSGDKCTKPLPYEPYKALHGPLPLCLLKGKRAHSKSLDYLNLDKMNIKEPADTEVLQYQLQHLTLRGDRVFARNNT
UniProt Q8R2Y2: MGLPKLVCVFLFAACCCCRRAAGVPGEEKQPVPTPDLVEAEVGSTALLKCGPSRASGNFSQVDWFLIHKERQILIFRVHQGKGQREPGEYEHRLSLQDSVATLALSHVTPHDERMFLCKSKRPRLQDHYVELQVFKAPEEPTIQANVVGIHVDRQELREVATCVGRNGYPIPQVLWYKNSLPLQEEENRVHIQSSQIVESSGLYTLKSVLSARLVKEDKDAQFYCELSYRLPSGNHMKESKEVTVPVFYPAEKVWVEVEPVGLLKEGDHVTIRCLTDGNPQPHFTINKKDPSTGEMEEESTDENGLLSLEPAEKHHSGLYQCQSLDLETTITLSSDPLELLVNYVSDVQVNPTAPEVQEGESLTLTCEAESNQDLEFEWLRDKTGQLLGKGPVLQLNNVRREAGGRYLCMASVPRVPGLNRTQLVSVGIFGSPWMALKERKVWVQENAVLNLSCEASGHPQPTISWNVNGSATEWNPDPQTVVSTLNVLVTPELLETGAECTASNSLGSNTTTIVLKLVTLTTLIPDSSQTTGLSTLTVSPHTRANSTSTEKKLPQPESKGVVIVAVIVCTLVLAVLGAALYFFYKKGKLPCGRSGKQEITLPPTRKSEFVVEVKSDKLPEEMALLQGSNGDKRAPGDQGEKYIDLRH
UniProt Q8VCR7: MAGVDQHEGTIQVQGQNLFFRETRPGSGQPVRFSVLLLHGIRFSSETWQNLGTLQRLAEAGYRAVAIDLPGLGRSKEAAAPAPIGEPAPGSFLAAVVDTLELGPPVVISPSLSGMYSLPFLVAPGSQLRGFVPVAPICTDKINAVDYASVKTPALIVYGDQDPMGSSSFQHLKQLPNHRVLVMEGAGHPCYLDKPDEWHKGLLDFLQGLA

Target	log2 fold change
UniProt Q8VDG7 (peptide sequence: AILAFLQK, peptide start residue: 350)	-0.618
UniProt Q8VDD8 (peptide sequence: LFDAPLSISKR, peptide start residue: 210)	0.218
UniProt Q8R5F3 (peptide sequence: GDLFACPK, peptide start residue: 19)	-0.404
UniProt Q8VE97 (peptide sequence: SKPNVPAESR, peptide start residue: 445)	-0.103
UniProt Q8R317 (peptide sequence: QLIMANPQMQQLIQR, peptide start residue: 198)	0.462
UniProt Q8R395 (peptide sequence: YSVALVLK, peptide start residue: 202)	-0.432
UniProt Q8R411 (peptide sequence: SSYNHGLNR, peptide start residue: 66)	-0.158
UniProt Q8VCB3 (peptide sequence: KLPIATVFTTHATLLGR, peptide start residue: 195)	-0.202
UniProt Q8VEB3 (peptide sequence: ALHGPLPLCLLK, peptide start residue: 148)	0.381
UniProt Q8R2Y2 (peptide sequence: SDKLPEEMALLQGSNGDKR, peptide start residue: 616)	0.149
UniProt Q8VCR7 (peptide sequence: VLVMEGAGHPCYLDKPDEWHK, peptide start residue: 180)	-0.063

Part of the list above in a different format.
Target | log2 fold change
UniProt Q8VE97 (peptide sequence: SKPNVPAESR, peptide start residue: 445) | -0.103
UniProt Q8R317 (peptide sequence: QLIMANPQMQQLIQR, peptide start residue: 198) | 0.462

Reference: the supplement of paper PMC12819154, “High-throughput peptide-centric local stability assay extends protein–ligand identification to membrane proteins, tissues and bacteria” (Nature Structural & Molecular Biology, 2025)
